At least one read-out could not be matched to a standard name with certainty.
Molecular target: T1, kinase domain of BRI1 (Arabidopsis thaliana, UniProt O22476)
T1 sequence (O22476 883-1158 limits assumed): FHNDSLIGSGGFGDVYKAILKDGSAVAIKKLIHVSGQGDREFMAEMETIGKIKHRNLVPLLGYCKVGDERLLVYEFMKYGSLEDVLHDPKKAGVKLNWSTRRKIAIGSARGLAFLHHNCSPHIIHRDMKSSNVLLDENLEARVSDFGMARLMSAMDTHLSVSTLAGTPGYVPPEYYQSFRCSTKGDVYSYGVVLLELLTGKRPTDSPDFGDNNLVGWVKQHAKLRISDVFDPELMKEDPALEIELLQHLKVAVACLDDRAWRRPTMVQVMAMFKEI
Assay: GST pull-down with GST-BRI1-KD in vitro
Assay type: binding
Conditions: S-35 Met labeled protein

B1: BKI1-6×HIS: recombinant BKI1 with His tag, in vitro translated and 35S-methionine labeled (protein, UniProt Q9FMZ0 1-337, looked up)
BRI1 kinase inhibitor 1: METNLQQVKNSSQTFSEKQNPKQEASPSPISSTCSSPSHDFSFTISLQPLSSSSKHISPTLRSPSKTTSSYQQTDPFAVDLSPADEIFFHGHLLPLHLLSHLPVSPRTSTGSYNDGFTLPVKDILPDQPTNNNNNTENAITNISTEAKDDNTEDKAEGEIRVKTKPIKSFSLFGLSKWRKGFESNEREQEQQQQKIKKPMSLDLSHAVKKYIRMLFQKRGNGTQFWNRRQTSSYSFSSSLMGPNGNSKTMINGSYNKRDLIRGRRGELFSAPASMRTSPTNSGHLRVSTAGLSSSSGSTSSSSSDSTMEELQAAIQAAIAHCKNSSAVDRDDKVKDS
modifications: C-terminal 6xHis tag
B1 was tested, and the “interaction with GST-BRI1-KD in vitro” value was “interacts”.
